No constants are given. Whether binding was seen depends on the method and setting. In cells and extracts the contact can be indirect. Some entries that bind do so weakly or less than the wild type. Sequences can lack the tags named with a protein.

One assay deals with GST-PINK1(1–581) (human) (UniProt Q9BXM7). Briefly: pull-down; GST fusion from E. coli crude extract held on glutathione agarose beads and washed with PBS; incubated with 50 µg of protein from the supernatant of E. coli crude extract with His-PINK1 or His-BAG5 in 0.25 ml HNTG buffer (20 mM HEPES-KOH pH 7.5, 100 mM NaCl, 0.1% Triton X-100, 10% glycerol), 2 h at 4°C; immunoblot; only the target purified. (In general: Immunoblotting shows a protein as a band on a membrane.)

Assay [1] concerns the target GST-PINK1(156–509), kinase domain (human) (UniProt Q9BXM7). Described as above.

B1: His-BAG5 (protein, UniProt Q9UL15 1-447)
chain: MDMGNQHPSISRLQEIQKEVKSVEQQVIGFSGLSDDKNYKKLERILTKQLFEIDSVDTEGKGDIQQARKRAAQETERLLKELEQNANHPHRIEIQNIFEEAQSLVREKIVPFYNGGNCVTDEFEEGIQDIILRLTHVKTGGKISLRKARYHTLTKICAVQEIIEDCMKKQPSLPLSEDAHPSVAKINFVMCEVNKARGVLIALLMGVNNNETCRHLSCVLSGLIADLDALDVCGRTEIRNYRREVVEDINKLLKYLDLEEEADTTKAFDLRQNHSILKIEKVLKRMREIKNELLQAQNPSELYLSSKTELQGLIGQLDEVSLEKNPCIREARRRAVIEVQTLITYIDLKEALEKRKLFACEEHPSHKAVWNVLGNLSEIQGEVLSFDGNRTDKNYIRLEELLTKQLLALDAVDPQGEEKCKAARKQAVRLAQNILSYLDLKSDEWEY
As to B1, the binding entry (in the assay with GST-PINK1(1–581) (human); in assay [1]) was “binds” each time.

The record behind these values is paper PMC3901670.
